According to PubChem BioAssay AID248 (DTP/NCI, 2004):
The list does not hold the whole screen: it gathers tests that were run many times, whatever their T/C, doses with no T/C, and many T/C values between a quarter and a half above the control. Other doses and runs of a compound stand elsewhere. T/C: endpoint of the treated group in % of that of the vehicle group. Some doses have a count of surviving animals in place of a T/C: the source holds a T/C of zero for them, seemingly a mark for toxic or unscored doses. Some doses without a T/C left all or most animals alive at the check, yet need not have been tolerated: the source hardly ever lists a survival T/C far under the control, and the zero likely stands for such cases as well. Survivors were counted at the toxicity check, usually on the fifth day, unless a day is given; later deaths do not show. Schedules are NCI's codes, read here as Q, the interval in days (D) or hours (H), X, the number of doses. Some schedule codes hold Z or #, which are not explained here. Some doses were run more than once; the results are listed from low to high. For survival time, the PubChem record calls one and a half times the control and up active, and a quarter to a half above the control has no call in these data; cut-offs in other NCI protocols can differ. Counts like (3×) give the number of equal values in this list.

Tested on: L1210 leukemia ip in BDF1 mice, survival T/C
Assay: NCI In Vivo Anticancer Drug Screen. Data for tumor model L1210 Leukemia (intraperitoneal) in B6D2F1 (BDF1) mice
Conditions: T/C endpoint: mean survival time, higher T/C = longer survival
[1] = dose: 400.0 mg/kg/injection, schedule: Q01DX001 (ip), vehicle: saline
[2] = dose: 400.0 mg/kg/injection, schedule: Q04DX003 (ip), vehicle: saline

With NC(=O)c1[nH]cnc1N the T/C (dose: 31.3 mg/kg/injection, schedule: Q06HX008 (ip), vehicle: steroid suspending solution, evaluated on day 5) was 102 % of control, the T/C (dose: 31.3 mg/kg/injection, schedule: Q06HX008 (ip), vehicle: steroid suspending solution, evaluated on day 6) was 93 % of control and the T/C (dose: 31.3 mg/kg/injection, schedule: Q06HX008 (ip), vehicle: steroid suspending solution, evaluated on day 19) was 102 % of control. For the same compound, the T/C (dose: 31.3 mg/kg/injection, schedule: Q06HX008 (ip), vehicle: steroid suspending solution, evaluated on day 60) was 93 and 101 % of control, the T/C (dose: 62.5 mg/kg/injection, schedule: Q06HX008 (ip), vehicle: steroid suspending solution, evaluated on day 5) was 102 % of control and the T/C (dose: 62.5 mg/kg/injection, schedule: Q06HX008 (ip), vehicle: steroid suspending solution, evaluated on day 6) was 102 % of control. The T/C (dose: 62.5 mg/kg/injection, schedule: Q06HX008 (ip), vehicle: steroid suspending solution, evaluated on day 19) was 102 % of control, the T/C (dose: 62.5 mg/kg/injection, schedule: Q06HX008 (ip), vehicle: steroid suspending solution, evaluated on day 60) was 97 and 102 % of control and the T/C (dose: 125.0 mg/kg/injection, schedule: Q06HX008 (ip), vehicle: steroid suspending solution, evaluated on day 5) was 103 % of control. For the same compound, the T/C (dose: 125.0 mg/kg/injection, schedule: Q06HX008 (ip), vehicle: steroid suspending solution, evaluated on day 6) was 96 % of control, the T/C (dose: 125.0 mg/kg/injection, schedule: Q06HX008 (ip), vehicle: steroid suspending solution, evaluated on day 19) was 103 % of control and the T/C (dose: 125.0 mg/kg/injection, schedule: Q06HX008 (ip), vehicle: steroid suspending solution, evaluated on day 60) was 96 % of control (2×). The T/C (dose: 250.0 mg/kg/injection, schedule: Q06HX008 (ip), vehicle: steroid suspending solution, evaluated on day 5) was 102 % of control, the T/C (dose: 250.0 mg/kg/injection, schedule: Q06HX008 (ip), vehicle: steroid suspending solution, evaluated on day 6) was 171 % of control and the T/C (dose: 250.0 mg/kg/injection, schedule: Q06HX008 (ip), vehicle: steroid suspending solution, evaluated on day 19) was 102 % of control. The T/C (dose: 250.0 mg/kg/injection, schedule: Q06HX008 (ip), vehicle: steroid suspending solution, evaluated on day 60) was 93 and 171 % of control.

O=C(CBr)c1cccc2c1ccc1ccccc12 was tested, and the survivor count (dose: 12.5 mg/kg/injection, schedule: Q01DX009 (ip), vehicle: other) was 3 of 3, the survivor count (dose: 25.0 mg/kg/injection, schedule: Q01DX009 (ip), vehicle: other) was 3 of 3 and the survivor count (dose: 50.0 mg/kg/injection, schedule: Q01DX005 (ip), vehicle: other) was 0 of 3. For the same compound, the survivor count (dose: 100.0 mg/kg/injection, schedule: Q04DX002 (ip), vehicle: other) was 0 of 3, the survivor count (dose: 200.0 mg/kg/injection, schedule: Q04DX002 (ip), vehicle: other) was 0 of 3 and the survivor count (dose: 400.0 mg/kg/injection, schedule: Q04DX002 (ip), vehicle: other) was 0 of 3.

With CCOC(=O)C(=O)C1CCCCC1=O (stereo not given) the survivor count [1] was 2 of 4.

For CN(N(P(N)(Cl)(c1ccccc1)c1ccccc1)P(N)(Cl)(c1ccccc1)c1ccccc1)P(N)(Cl)(c1ccccc1)c1ccccc1, the survivor count (dose: 400.0 mg/kg/injection, schedule: Q01DX001 (ip), vehicle: steroid suspending solution) was 1 of 4.

CC12CC3CC(C1)CC(NCCO)(C3)C2 was tested, and the survivor count (dose: 100.0 mg/kg/injection, schedule: Q04DX002 (ip), vehicle: Klucel (hydroxypropylcellulose) (HPC)) was 0 of 3, the survivor count (dose: 200.0 mg/kg/injection, schedule: Q04DX002 (ip), vehicle: Klucel (hydroxypropylcellulose) (HPC)) was 0 of 3 and the survivor count (dose: 400.0 mg/kg/injection, schedule: Q04DX002 (ip), vehicle: Klucel (hydroxypropylcellulose) (HPC)) was 0 of 3.

For NC1Cc2ccccc2C1, the survivor count (dose: 200.0 mg/kg/injection, schedule: Q01DX009 (ip), vehicle: saline) was 1 of 6 and the survivor count [2] was 0 of 6.

With CSc1cc(C)c(OC(=O)Nc2c(C)cccc2C)c(CO)c1 the survivor count (dose: 400.0 mg/kg/injection, schedule: Q04DX003 (ip), vehicle: saline with Tween-80) was 5 of 6.

CCCC/C(COC)=N\N=C(\CCOC)COC was tested, and the survivor count (dose: 100.0 mg/kg/injection, schedule: Q01DX001 (ip), vehicle: carboxymethylcellulose (CMC)) was 3 of 3.

With O=C1CC(c2cccc(S(=O)(=O)O)c2)=NN1c1ccc([N+](=O)[O-])cn1 the survivor count (dose: 100.0 mg/kg/injection, schedule: Q04DX003 (ip), vehicle: saline) was 1 of 6, the survivor count (dose: 200.0 mg/kg/injection, schedule: Q04DX003 (ip), vehicle: saline) was 0 of 6 and the survivor count [2] was 0 of 6.

With CCCCn1cnc2c(=S)nc[nH]c21 the T/C (dose: 64.0 mg/kg/injection, schedule: Q01DX Z (ip), vehicle: carboxymethylcellulose (CMC)) was 140 % of control, the T/C (dose: 66.0 mg/kg/injection, schedule: Q01DX015 (ip), vehicle: carboxymethylcellulose (CMC)) was 136 % of control and the T/C (dose: 80.0 mg/kg/injection, schedule: Q01DX Z (ip), vehicle: carboxymethylcellulose (CMC)) was 143 % of control. The T/C (dose: 120.0 mg/kg/injection, schedule: Q01DX015 (ip), vehicle: carboxymethylcellulose (CMC)) was 147 % of control, the T/C (dose: 128.0 mg/kg/injection, schedule: Q01DX Z (oral), vehicle: carboxymethylcellulose (CMC)) was 149 % of control and the T/C (dose: 129.0 mg/kg/injection, schedule: Q02DX010 (ip), vehicle: carboxymethylcellulose (CMC)) was 122, 131, 143 (2×), 167 % of control. The T/C (dose: 132.0 mg/kg/injection, schedule: Q02DX010 (ip), vehicle: carboxymethylcellulose (CMC)) was 146 % of control, the T/C (dose: 150.0 mg/kg/injection, schedule: Q01DX015 (ip), vehicle: carboxymethylcellulose (CMC)) was 131 % of control and the T/C (dose: 200.0 mg/kg/injection, schedule: Q02DX010 (ip), vehicle: carboxymethylcellulose (CMC)) was 136 % of control. The T/C (dose: 201.0 mg/kg/injection, schedule: Q02DX010 (ip), vehicle: carboxymethylcellulose (CMC)) was 144, 150, 154 (2×), 156 % of control, the T/C (dose: 256.0 mg/kg/injection, schedule: Q01DX009 (ip), vehicle: saline) was 136 % of control and the T/C (dose: 300.0 mg/kg/injection, schedule: Q02DX010 (ip), vehicle: carboxymethylcellulose (CMC)) was 107, 119, 127, 129, 131, 139 % of control. The T/C (dose: 450.0 mg/kg/injection, schedule: Q02DX010 (ip), vehicle: carboxymethylcellulose (CMC)) was 87, 96, 97, 102, 104, 129 % of control, the survivor count (dose: 512.0 mg/kg/injection, schedule: Q01DX Z (ip), vehicle: saline) was 6 of 6 and the T/C (dose: 675.0 mg/kg/injection, schedule: Q02DX010 (ip), vehicle: carboxymethylcellulose (CMC)) was 82, 87, 88, 90, 93 % of control.

In the case of CC1SCC(NC(=O)N(CCCl)N=O)CS1 (stereo not given), the T/C (dose: 40.0 mg/kg/injection, schedule: Q01DX001 (ip), vehicle: saline with Tween-80) is reported as 144 % of control, the survivor count (dose: 90.0 mg/kg/injection, schedule: Q01DX001 (ip), vehicle: saline with Tween-80) is reported as 9 of 10 and the survivor count (dose: 134.0 mg/kg/injection, schedule: Q01DX001 (ip), vehicle: saline with Tween-80) is reported as 3 of 10. For the same compound, the survivor count (dose: 200.0 mg/kg/injection, schedule: Q01DX001 (ip), vehicle: saline with Tween-80) was 2 of 10.

CCOP(=O)(OCC)O/N=C(/C)c1cccc([N+](=O)[O-])c1 was tested, and the survivor count (dose: 20.0 mg/kg/injection, schedule: Q01DX001 (ip), vehicle: saline) was 0 of 6, the survivor count (dose: 40.0 mg/kg/injection, schedule: Q01DX001 (ip), vehicle: saline) was 0 of 6 and the survivor count (dose: 75.0 mg/kg/injection, schedule: Q01DX001 (ip), vehicle: saline) was 0 of 6. For the same compound, the survivor count (dose: 80.0 mg/kg/injection, schedule: Q01DX001 (ip), vehicle: saline) was 0 of 6, the survivor count (dose: 150.0 mg/kg/injection, schedule: Q01DX001 (ip), vehicle: saline) was 0 of 6 and the survivor count (dose: 300.0 mg/kg/injection, schedule: Q01DX001 (ip), vehicle: saline) was 0 of 6.

With CCCCCNC(=O)CCCC the survivor count (dose: 400.0 mg/kg/injection, schedule: Q01DX001 (ip), vehicle: carboxymethylcellulose (CMC)) was 3 of 6 and the survivor count (dose: 400.0 mg/kg/injection, schedule: Q01DX009 (ip), vehicle: carboxymethylcellulose (CMC)) was 0 of 3 and 0 of 6.

With O=C(/C=C\C=C\c1ccccc1)c1ccc([N+](=O)[O-])cc1 the survivor count (dose: 200.0 mg/kg/injection, schedule: Q01DX009 (ip), vehicle: carboxymethylcellulose (CMC)) was 3 of 3.

For Cc1cc(C)c2nc(-c3ccc(F)cc3)cc(C(=O)O)c2c1, the survivor count [1] was 1 of 6.

With CC1CC/C(=N\N(C)C)c2ccccc21 (stereo not given) the survivor count (dose: 200.0 mg/kg/injection, schedule: Q01DX009 (ip), vehicle: saline with Tween-80) was 4 of 6 and the survivor count (dose: 400.0 mg/kg/injection, schedule: Q01DX009 (ip), vehicle: saline with Tween-80) was 0 of 6.
